In PubChem BioAssay AID1347076 (National Center for Advancing Translational Sciences (NCATS), 2019):
Hit rate of the full screen: of about 400,000 compounds, about 13,000 (3.2%) were called active. Inconclusive results, whose numbers are uncertain, are shown with a selection of clear calls. Calls follow the shape of the dose curve; as a rule, active = well fitted cell-killing curve with a large enough effect; inconclusive = small, poorly fitted or top-dose-only effect, or effect the other way; inactive = flat fitted curve, though single readings scatter. Potencies beside an inconclusive call are fits to weak or partial responses and may not hold up.

Assay: qHTS assay for MDR1-selective chemotherapeutics: Primary screen using the drug-selected MDR subline cells KB-V1; also: nearly all actives have a fitted effect of over 60% in size
Conditions: KB-V1 MDR cells viability, CellTiter-Glo, 72 h; series mostly up to 46.1 µM
Outline: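 Cytotoxicity via CellTiter-Glo luminescence after 72 h compound exposure at 37 degrees C. Cells: drug-selected KB-V1 line, DMEM phenol-red free plus 10% FBS. Compounds tested at multiple concentrations; normalized data fitted to concentration-effect curves.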
Potency is read from the fitted curve at half-maximal effect.

| SMILES | Potency |
| --- | --- |
| Cc1ccc(C)c(CN2CCC(CNC(=O)Nc3ccc(C)c(C)c3)CC2)c1 | active: 18.4 µM |
| COc1ccc(CCNc2ncccc2C#N)cc1OC | inconclusive: 18.4 µM [rising, partial curve, poor fit] |
| CCOC(=O)c1c(NC(=O)/C=C/C(=O)O)sc(C)c1-c1ccc(C(C)(C)C)cc1 | inconclusive: 18.4 µM [cytotoxic, single point] |
| COc1ccccc1NC(=O)Nc1nc(CC(=O)N2CCN(c3ccccc3F)CC2)cs1 | inconclusive: 29.1 µM [cytotoxic, single point] |
| Cc1cc(=O)oc2c3c(cc(OCC(=O)NCC4CCC(C(=O)O)CC4)c12)OC(C)(C)CC3 (configuration not stated) | inconclusive: 29.1 µM [rising, single point] |
| O=S(=O)(c1ccc(Cl)cc1)c1nc(-c2cccc(Br)c2)oc1NCc1ccccc1 | active: 16.4 µM |
| COc1ccc(CCn2nnnc2CN2CCN(C(=O)c3ccco3)CC2)cc1OC | inconclusive: 16.4 µM [rising, partial curve, poor fit] |
| O=C1C2C3c4ccccc4C(c4ccccc43)[C@@H]2C(=O)N1c1nc(-c2ccccc2)cs1 (some centres not stated) | active: 20.6 µM |
| COc1cc(SC)ccc1C(=O)Nc1ccc2c(c1)OCCO2 | inconclusive: 29.1 µM [cytotoxic, single point] |
| O=C(NCCN1CCCCC1)c1cccc2c1C(=O)c1ccc(N3CCCC3)cc1S2(=O)=O | inactive |
| COCCOC(=O)C1=C(C)NC(=O)NC1c1ccc(-c2ccc(F)cc2)o1 (configuration not stated) | inconclusive: 20.6 µM [cytotoxic, single point] |
| COC(=O)c1cc(NS(=O)(=O)c2ccc3c(c2)c(=O)n(C)c(=O)n3C)cc(C(=O)OC)c1 | inconclusive: 18.4 µM [rising, single point] |
| CCC(C)NC(=O)C1(C)CCC(=O)N1Cc1ccccc1OC (configuration not stated) | inconclusive: 8.2 µM [cytotoxic, partial curve] |
| Cc1ccc(C(C[N+](=O)[O-])c2c(C)[nH]n(-c3ccccc3)c2=O)cc1 (configuration not stated) | inactive |
| CN1CCNC(=O)C1CC(=O)NCC1(c2ccccc2)CCCCC1 (configuration not stated) | inconclusive: 5.8 µM [cytotoxic, full curve, poor fit] |
| CC(C)(CNC(=O)/C=C/c1ccc(F)cc1)CNC(=O)/C=C/c1ccc(F)cc1 | inconclusive: 1.64 µM [cytotoxic, full curve, poor fit] |
| CC1=C(C(=O)OCc2ccccc2)C(c2ccc(C#N)cc2)NC(=O)N1CCCC(=O)O (configuration not stated) | inconclusive: 1.03 µM [rising, full curve] |
| COc1ccc(OC)c2sc(N(CCCN(C)C)C(=O)CCS(=O)(=O)c3ccccc3)nc12 | inconclusive: 18.4 µM [cytotoxic, single point] |
| CCC(=O)N1c2ccccc2CC1C(=O)NCc1cccc(OC)c1OC (configuration not stated) | inactive |
| Clc1ccc(-c2cc(CN3CCCCC3)no2)cc1Cl | inactive |
| CCOc1ccc(NC(=S)N2CCC(C(O)(c3ccccc3)c3ccccc3)CC2)cc1 | inconclusive: 23.1 µM [cytotoxic, single point] |
| COc1ccc(NC(C)C(=O)Nc2ccc(C#N)cc2)cc1Cl (configuration not stated) | active: 20.6 µM |
| O=C(O)c1ccc(NS(=O)(=O)Cc2ccc(Cl)c(Cl)c2)cc1 | inconclusive: 23.1 µM [rising, single point] |

Molecules shown so far containing a furan ring, fused or not:

| SMILES | Potency |
| --- | --- |
| COc1ccc(CCn2nnnc2CN2CCN(C(=O)c3ccco3)CC2)cc1OC | inconclusive: 16.4 µM [rising, partial curve, poor fit] |
| COCCOC(=O)C1=C(C)NC(=O)NC1c1ccc(-c2ccc(F)cc2)o1 (configuration not stated) | inconclusive: 20.6 µM [cytotoxic, single point] |

Some of the entries so far, comma-delimited:
SMILES,Potency
COc1ccc(CCNc2ncccc2C#N)cc1OC,"inconclusive: 18.4 µM [rising, partial curve, poor fit]"
CCOC(=O)c1c(NC(=O)/C=C/C(=O)O)sc(C)c1-c1ccc(C(C)(C)C)cc1,"inconclusive: 18.4 µM [cytotoxic, single point]"
COc1ccccc1NC(=O)Nc1nc(CC(=O)N2CCN(c3ccccc3F)CC2)cs1,"inconclusive: 29.1 µM [cytotoxic, single point]"

Continued.

| SMILES | Potency |
| --- | --- |
| O=C1C=C(Nc2ccc(O)cc2)C(=O)c2ccccc21 | inconclusive: 29.1 µM [cytotoxic, single point] |
| COc1ccc(Nc2nc(Nc3ccc(OC)cc3)nc(SC3=NCCS3)n2)cc1 | inconclusive: 23.1 µM [cytotoxic, partial curve, poor fit] |
| COc1cccc(C(=O)Nc2ncc3c(n2)CC(c2ccc(OC)cc2OC)CC3=O)c1 (configuration not stated) | active: 5.17 µM |
| CCC1=NN(C(=O)Cc2ccc([N+](=O)[O-])cc2)C(O)(c2ccc(Br)cc2)C1 (configuration not stated) | active: 13 µM |
| COC(=O)Nc1ccc(S(=O)(=O)N2CCC(Cc3ccccc3)CC2)cc1 | inactive |
| CC(NC(=O)CSc1nnnn1C1CC1)c1ccccc1Br (configuration not stated) | inactive |
| COc1ccc(-n2c(/C=C/c3cccc(C(F)(F)F)c3)nc3ccccc3c2=O)cc1Cl | inconclusive: 16.4 µM [cytotoxic, single point] |
| CCOc1ccccc1NC(=O)C1CCN(S(=O)(=O)c2ccc3[nH]c(=O)ccc3c2)CC1 | inconclusive: 16.4 µM [rising, single point] |
| COc1cc(-c2nc(-c3ccc4c(c3)[nH]c(=O)n4C)no2)cc(OC)c1OC | inconclusive: 29.1 µM [rising, single point] |
| CC(C)n1nnnc1C1c2ccccc2C(=O)N1CCc1ccc(O)cc1 (configuration not stated) | inconclusive: 20.6 µM [cytotoxic, partial curve, poor fit] |
| CN(CCOc1ccc(Cl)cc1)C(=O)c1ccc2c(=O)n3c(nc2c1)CCC3 | inconclusive: 10.3 µM [cytotoxic, partial curve] |
| CC(NC(=O)CNC(=S)N(Cc1cccs1)C1CCCC1)c1ccccc1 (configuration not stated) | inactive |
| Cn1cc(S(=O)(=O)N2CCCCCC2)cc1C(=O)N1CCN(c2cccc(C(F)(F)F)c2)CC1 | active: 20.6 µM |
| COc1cc(C)c(NC(=O)c2cccc(S(=O)(=O)N3CCCC3)c2)cc1OC | inactive |
| CCN(CC)C(=O)Nc1ccc(Br)cc1 | inactive |
| COc1ccc(-n2ccnc2SCC(=O)NCc2ccc(F)cc2)c(OC)c1 | inconclusive: 13 µM [cytotoxic, partial curve, poor fit] |
| COc1cccc2cc(C(C)=O)c(=O)oc12 | inconclusive: 0.164 µM [rising, full curve, poor fit] |
| Cc1ccc(S(=O)(=O)N2CCN(Cc3cc(Br)ccc3O)CC2)cc1 | inactive |
| COc1ccc(Cc2nnc(N/N=C/c3ccc(C)o3)[nH]c2=O)cc1 | inactive |
| CC(C(=O)Nc1cccc(S(=O)(=O)N2CCOCC2)c1)N1CCN(C/C=C/c2ccccc2)CC1 (configuration not stated) | inconclusive: 18.4 µM [cytotoxic, partial curve] |
| O=C(/C=C/c1cccc([N+](=O)[O-])c1)c1ccc2c(c1)OCCO2 | inconclusive: 20.6 µM [cytotoxic, partial curve, poor fit] |
| CCN(N=O)c1ccc(C=C2C=Cc3ccccc32)cc1 | active: 20.6 µM |
| CCC(C)NC(=O)c1ccccc1NC(=O)c1ccc(CSc2ccccc2)cc1 (configuration not stated) | active: 11.6 µM |

| SMILES | Potency |
| --- | --- |
| CSc1ccccc1NC(=O)CN(C)C(=O)CCc1c[nH]c2ccccc12 | inconclusive: 23.1 µM [cytotoxic, single point] |
| O=C(NCc1ccccc1)C(C1CC1)n1c(=O)c(-c2ccco2)nc2ccccc21 (configuration not stated) | inconclusive: 5.8 µM [cytotoxic, partial curve, poor fit] |
| COC(=O)C1=C(C)NC(C)=C(C(=O)OC)C1C(=O)OCC(=O)c1ccc(F)cc1 | inconclusive: 10.3 µM [cytotoxic, partial curve] |
| CN(c1ccc(S(=O)(=O)N2CCOCC2)cn1)C1CCCCC1 | inactive |
| OCC1(Cc2cccc(F)c2)CCN(Cc2cccc3nccnc23)CC1 | inconclusive: 0.366 µM [rising, full curve, poor fit] |
| Cc1cc2nnc(SCC(=O)Nc3cc(S(=O)(=O)N4CCOCC4)ccc3Cl)n2c2ccccc12 | inconclusive: 9.2 µM [cytotoxic, partial curve] |
| COc1cccc(-c2cc3nc(NCc4ccccc4OC)n(C)c(=O)c3s2)c1 | inconclusive: 4.11 µM [cytotoxic, full curve] |
| O=C1CSC2(C(=O)N(Cc3ccccc3)c3ccccc32)N1c1cccc(F)c1 (configuration not stated) | inconclusive: 20.6 µM [cytotoxic, partial curve] |
| Cn1c(NC(=O)/C=C\c2ccccc2)cc(=O)n(C)c1=O | inconclusive: 29.1 µM [cytotoxic, partial curve, poor fit] |
| CCCN(C(=O)c1cc(Cl)nc2ccccc12)c1c(N)n(Cc2ccccc2)c(=O)[nH]c1=O | inconclusive: 8.2 µM [rising, partial curve] |
| CCOc1ccc(CN(C(=O)c2ccccn2)c2ccc(OC)c(Cl)c2)cc1 | inconclusive: 6.51 µM [cytotoxic, partial curve] |
| Cc1nc(SCC(=O)N2CCCCC2)c2c(C)c(C)sc2n1 | inconclusive: 9.2 µM [cytotoxic, partial curve, poor fit] |
| O=C(Nc1ccccc1N1CCCCC1)c1cccc(OC(F)F)c1 | inconclusive: 14.6 µM [cytotoxic, single point] |
| CCN(CC)S(=O)(=O)c1ccc(C(=O)NCc2n[nH]c(=S)n2Cc2ccccc2)cc1 | inactive |
| COc1ccc(CNC(=O)COc2cc3c(c4oc(=O)cc(C)c24)CCC(C)(C)O3)cc1OC | inconclusive: 14.6 µM [cytotoxic, partial curve, poor fit] |
| CN(Cc1ccccc1)c1nc(N)c([N+](=O)[O-])c(NCc2ccccc2)n1 | active: 18.4 µM |
| Cc1ccccc1CSCC(=O)N1CCN(c2ccccc2)CC1 | inconclusive: 29.1 µM [cytotoxic, single point] |
| O=C(OCc1ccccc1F)c1cc2ccccc2cc1O | inconclusive: 29.1 µM [rising, single point] |
| Cc1cc(C(=O)NCc2ccc(Cl)cc2)n(-c2ccccc2)n1 | inconclusive: 20.6 µM [cytotoxic, partial curve] |
| CCSc1cc(N2CCOCC2)nc(-c2ccc(Cl)cc2)n1 | inactive |
| Cc1ccccc1CSCCNC(=O)c1ccc(Cl)c(S(=O)(=O)N2CCOCC2)c1 | inconclusive: 20.6 µM [cytotoxic, single point] |
